PubChem BioAssay AID1259308 – NCATS | 2017
Screen: 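Knock-downs that increase output of a recombinant reporter protein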 (primary screen). Cells: human HEK293 embryonic kidney cells stably expressing firefly luciferase (HEK-CMV-Luc2-Hygro). Reagents: single siRNA against human genes, 0.8 pmol siRNA per well. Timing: 72 h. Read-out: 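Reporter luminescence and viable-cell signal on separate replicate plates, given as percent of non-targeting control and median/MAD z-scores, plus per-cell luciferase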. Direction: total luciferase, z-score and total luciferase, % of control: higher = more reporter protein produced. Active means: 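An siRNA counts as active if its total luciferase robust z-score exceeds 3; genes with two or more such siRNAs out of three were retested with fresh siRNAs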. Calls: active = raised luciferase; inactive = no rise.
Here is an unselected part of about 59,000 reagents tested. About 1,510 of all reagents (2.6%) were called active. 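Calls use total luciferase alone and ignore viability, so some active siRNAs may act by altering cell number.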 Reagents against one gene are numbered here. Further read-outs or replicates are left out here.

total luciferase, z-score | total luciferase, % of control | outcome | gene | siRNA no.
-0.0954 | 80 | inactive | SUMO3 | 1
-2.71 | 27.9 | inactive | SUMO3 | 2
1.35 | 109 | inactive | SUMO3 | 3
1.24 | 107 | inactive | CNKSR2 | 1
-0.153 | 78.8 | inactive | CNKSR2 | 2
-2.07 | 40.7 | inactive | CNKSR2 | 3
1.1 | 104 | inactive | NRXN2 | 1
0.721 | 96.2 | inactive | NRXN2 | 2
-0.246 | 77 | inactive | NRXN2 | 3
0.51 | 92 | inactive | MCCC2 | 1
0.831 | 98.4 | inactive | MCCC2 | 2
-0.234 | 77.2 | inactive | MCCC2 | 3
0.744 | 96.7 | inactive | ATP13A1 | 1
1.07 | 103 | inactive | ATP13A1 | 2
-0.058 | 80.7 | inactive | ATP13A1 | 3
1.57 | 113 | inactive | SEMA4G | 1
-0.0974 | 79.9 | inactive | SEMA4G | 2
3.21 | 146 | active | SEMA4G | 3
1.3 | 108 | inactive | SORD | 1
-0.567 | 70.6 | inactive | SORD | 2
-0.853 | 64.9 | inactive | SORD | 3
-0.18 | 78.3 | inactive | KRT6B | 1
1.84 | 119 | inactive | KRT6B | 2
-0.903 | 63.9 | inactive | KRT6B | 3
0.843 | 98.6 | inactive | NPIPA1 | 1
1.39 | 110 | inactive | NPIPA1 | 2
1 | 102 | inactive | NPIPA1 | 3
1.35 | 109 | inactive | TBCE | 1
-0.774 | 66.5 | inactive | TBCE | 2
-2.35 | 35.2 | inactive | TBCE | 3
-0.333 | 75.3 | inactive | YPEL3 | 1
0.937 | 101 | inactive | YPEL3 | 2
-0.73 | 67.4 | inactive | YPEL3 | 3

3 entries from above, limited to “total luciferase, z-score”.
KRT6B #2 = 1.84
KRT6B #3 = -0.903
NPIPA1 #1 = 0.843

More results:
total luciferase, z-score | total luciferase, % of control | outcome | gene | siRNA no.
0.802 | 97.8 | inactive | HYLS1 | 1
-0.159 | 78.7 | inactive | HYLS1 | 2
0.717 | 96.2 | inactive | HYLS1 | 3
0.256 | 87 | inactive | RNF215 | 1
3.74 | 156 | active | RNF215 | 2
-0.991 | 62.2 | inactive | RNF215 | 3
-0.149 | 78.9 | inactive | HAUS5 | 1
-1.56 | 50.9 | inactive | HAUS5 | 2
-0.661 | 68.7 | inactive | HAUS5 | 3
-0.661 | 68.7 | inactive | TAPBP | 1
-2.74 | 27.4 | inactive | TAPBP | 2
-0.984 | 62.3 | inactive | TAPBP | 3
-1.66 | 48.9 | inactive | GLT6D1 | 1
-2.15 | 39.1 | inactive | GLT6D1 | 2
-0.397 | 74 | inactive | GLT6D1 | 3
-0.161 | 78.7 | inactive | MFSD6L | 1
0.618 | 94.2 | inactive | MFSD6L | 2
-0.449 | 73 | inactive | MFSD6L | 3
-2.06 | 40.9 | inactive | NCAPH2 | 1
-0.24 | 77.1 | inactive | NCAPH2 | 2
-0.0887 | 80.1 | inactive | NCAPH2 | 3
0.0268 | 82.4 | inactive | SPATA4 | 1
0.243 | 86.7 | inactive | SPATA4 | 2
-0.826 | 65.5 | inactive | SPATA4 | 3
